Source: ChEMBL document CHEMBL1122480, “Synthesis and pharmacological studies of 4,4-disubstituted piperidines: a new class of compounds with potent analgesic properties” (J Med Chem, 1983)

Chains of the proteins cited; added tags and fusions are not shown. Lines headed by an entry give the natural chain unless they say otherwise; changes in a name come on top.
UniProt P33533: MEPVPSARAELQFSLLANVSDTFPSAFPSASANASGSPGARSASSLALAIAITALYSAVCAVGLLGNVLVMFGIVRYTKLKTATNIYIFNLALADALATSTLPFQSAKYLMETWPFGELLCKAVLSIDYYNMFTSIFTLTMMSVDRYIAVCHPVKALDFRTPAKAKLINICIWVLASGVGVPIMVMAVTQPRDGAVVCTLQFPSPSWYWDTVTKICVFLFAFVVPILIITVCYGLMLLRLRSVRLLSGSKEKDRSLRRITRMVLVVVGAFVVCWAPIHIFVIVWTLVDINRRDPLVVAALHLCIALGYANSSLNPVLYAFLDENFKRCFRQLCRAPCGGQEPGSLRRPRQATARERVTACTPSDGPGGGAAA
UniProt P34975: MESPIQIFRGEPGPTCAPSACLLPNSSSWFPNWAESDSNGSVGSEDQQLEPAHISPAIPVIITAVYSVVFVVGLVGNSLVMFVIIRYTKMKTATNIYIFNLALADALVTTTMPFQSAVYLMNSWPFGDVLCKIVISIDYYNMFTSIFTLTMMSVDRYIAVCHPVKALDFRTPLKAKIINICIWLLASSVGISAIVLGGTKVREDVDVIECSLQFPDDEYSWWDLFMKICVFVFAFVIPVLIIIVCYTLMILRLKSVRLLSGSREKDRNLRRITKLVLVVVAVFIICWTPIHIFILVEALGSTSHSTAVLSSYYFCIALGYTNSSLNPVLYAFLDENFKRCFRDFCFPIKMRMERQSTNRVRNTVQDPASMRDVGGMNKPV
UniProt P33535: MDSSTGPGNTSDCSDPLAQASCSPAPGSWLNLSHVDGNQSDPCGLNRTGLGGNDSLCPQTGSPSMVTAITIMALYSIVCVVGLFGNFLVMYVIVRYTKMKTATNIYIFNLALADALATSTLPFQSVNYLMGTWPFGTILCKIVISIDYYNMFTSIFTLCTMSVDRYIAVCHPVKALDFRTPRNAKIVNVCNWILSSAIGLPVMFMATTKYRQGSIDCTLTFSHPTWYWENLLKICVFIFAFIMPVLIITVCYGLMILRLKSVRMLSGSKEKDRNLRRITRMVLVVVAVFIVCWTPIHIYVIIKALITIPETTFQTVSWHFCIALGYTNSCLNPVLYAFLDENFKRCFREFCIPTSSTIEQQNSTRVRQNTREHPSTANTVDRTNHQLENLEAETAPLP

Tests used:
Opioid receptor [1] = target: T1, Opioid receptor (Rattus norvegicus, UniProt P33533+P34975+P33535); experiment: Inhibition of [3H]naloxone binding to rat brain membrane with 100 mM NaCl.
Opioid receptor [2] = target: T1, Opioid receptor; experiment: Inhibition of [3H]-Naloxone binding to rat brain membrane without NaCl

## CO[C@@]12CC[C@@]3(C[C@@H]1[C@](C)(O)C(C)(C)C)[C@H]1Cc4ccc(O)c5c4[C@@]3(CCN1CC1CC1)[C@H]2O5 [BUPRENORPHINE]
Opioid receptor [1]
  IC50: 0.44 nM
Opioid receptor [2]
  IC50: 0.41 nM
